Some of the results follow.
Columns and labels:
Test in all cases: log2 fold change, soluble protein after heating vs DMSO (PISA); higher = thermal stabilisation; K562 cells, 10 uM, 30 min; active = over 0.2 and 3.5 SD of the protein, either way, in both replicates (recomputed)
[1] = compound: CC1=C(C=C(C=C1)NC(=O)C2=CC(=CC=C2)C(C)(C)C#N)NC3=CC4=C(C=C3)N=CN(C4=O)C
Summary of the method: (§1)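 K562 cells at 2×10^6 cells/mL were given 10 μM compound for 30 min. Aliquots then went through 3 min of heating across 48°C-58°C, were pooled, and were extracted in PBS with 0.5% NP-40 at 4°C, and the supernatant after 21,000xg for 90 min was quantified by TMTpro 16plex LC-MS/MS with channel sums equalised. Thermal stability relative to control samples, from duplicates, is given as log2 fold change.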

By UniProt entry, the sequences of proteins in these tests, tags left out. Where a name states a change or a piece, a line headed by the entry shows the natural chain unless it says otherwise.
UniProt O60220: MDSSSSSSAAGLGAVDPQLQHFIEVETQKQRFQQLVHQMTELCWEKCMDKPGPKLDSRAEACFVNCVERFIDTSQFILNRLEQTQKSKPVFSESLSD
UniProt Q00059: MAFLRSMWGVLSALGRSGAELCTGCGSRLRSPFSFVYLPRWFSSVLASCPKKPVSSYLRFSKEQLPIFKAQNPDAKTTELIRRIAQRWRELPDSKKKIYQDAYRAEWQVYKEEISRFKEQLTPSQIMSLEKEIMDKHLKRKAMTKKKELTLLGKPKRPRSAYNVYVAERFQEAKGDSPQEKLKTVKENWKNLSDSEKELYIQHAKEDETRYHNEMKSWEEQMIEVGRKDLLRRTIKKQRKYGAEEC
UniProt Q3ZCQ8: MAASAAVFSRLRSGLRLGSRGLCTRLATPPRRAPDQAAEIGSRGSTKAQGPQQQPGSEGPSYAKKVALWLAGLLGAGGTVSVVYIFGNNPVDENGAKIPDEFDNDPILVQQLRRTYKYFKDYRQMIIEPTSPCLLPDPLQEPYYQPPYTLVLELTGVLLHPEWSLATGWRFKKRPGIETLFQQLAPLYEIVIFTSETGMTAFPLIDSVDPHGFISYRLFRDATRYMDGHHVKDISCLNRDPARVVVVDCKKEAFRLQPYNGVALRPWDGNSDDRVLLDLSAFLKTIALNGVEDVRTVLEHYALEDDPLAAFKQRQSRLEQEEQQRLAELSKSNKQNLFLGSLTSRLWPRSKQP
UniProt Q96FV9: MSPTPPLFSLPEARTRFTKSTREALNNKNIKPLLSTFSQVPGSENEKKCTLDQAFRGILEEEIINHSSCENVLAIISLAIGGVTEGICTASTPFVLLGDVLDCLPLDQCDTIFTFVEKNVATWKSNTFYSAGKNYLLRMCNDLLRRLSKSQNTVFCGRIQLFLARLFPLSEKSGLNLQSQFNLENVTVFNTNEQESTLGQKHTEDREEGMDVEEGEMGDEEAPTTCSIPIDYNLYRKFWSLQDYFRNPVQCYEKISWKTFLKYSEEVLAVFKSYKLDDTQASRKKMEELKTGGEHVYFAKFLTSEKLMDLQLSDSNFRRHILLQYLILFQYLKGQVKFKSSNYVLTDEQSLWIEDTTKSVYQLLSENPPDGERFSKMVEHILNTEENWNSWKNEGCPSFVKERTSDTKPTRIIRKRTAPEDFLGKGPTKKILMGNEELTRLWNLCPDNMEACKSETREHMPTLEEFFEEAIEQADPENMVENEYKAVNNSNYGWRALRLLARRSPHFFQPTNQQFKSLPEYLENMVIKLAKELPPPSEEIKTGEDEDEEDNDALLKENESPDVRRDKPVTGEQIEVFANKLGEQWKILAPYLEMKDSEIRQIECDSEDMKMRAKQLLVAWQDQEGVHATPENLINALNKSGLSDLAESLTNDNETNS
UniProt Q86XR7, whole entry, looked up: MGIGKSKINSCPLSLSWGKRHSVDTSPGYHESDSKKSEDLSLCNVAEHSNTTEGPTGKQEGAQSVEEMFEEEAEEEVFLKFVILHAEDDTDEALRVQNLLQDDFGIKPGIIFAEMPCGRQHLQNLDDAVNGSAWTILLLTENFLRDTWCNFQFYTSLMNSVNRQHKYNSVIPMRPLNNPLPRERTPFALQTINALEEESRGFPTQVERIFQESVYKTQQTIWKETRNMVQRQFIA
UniProt Q9Y4R8, whole entry, looked up: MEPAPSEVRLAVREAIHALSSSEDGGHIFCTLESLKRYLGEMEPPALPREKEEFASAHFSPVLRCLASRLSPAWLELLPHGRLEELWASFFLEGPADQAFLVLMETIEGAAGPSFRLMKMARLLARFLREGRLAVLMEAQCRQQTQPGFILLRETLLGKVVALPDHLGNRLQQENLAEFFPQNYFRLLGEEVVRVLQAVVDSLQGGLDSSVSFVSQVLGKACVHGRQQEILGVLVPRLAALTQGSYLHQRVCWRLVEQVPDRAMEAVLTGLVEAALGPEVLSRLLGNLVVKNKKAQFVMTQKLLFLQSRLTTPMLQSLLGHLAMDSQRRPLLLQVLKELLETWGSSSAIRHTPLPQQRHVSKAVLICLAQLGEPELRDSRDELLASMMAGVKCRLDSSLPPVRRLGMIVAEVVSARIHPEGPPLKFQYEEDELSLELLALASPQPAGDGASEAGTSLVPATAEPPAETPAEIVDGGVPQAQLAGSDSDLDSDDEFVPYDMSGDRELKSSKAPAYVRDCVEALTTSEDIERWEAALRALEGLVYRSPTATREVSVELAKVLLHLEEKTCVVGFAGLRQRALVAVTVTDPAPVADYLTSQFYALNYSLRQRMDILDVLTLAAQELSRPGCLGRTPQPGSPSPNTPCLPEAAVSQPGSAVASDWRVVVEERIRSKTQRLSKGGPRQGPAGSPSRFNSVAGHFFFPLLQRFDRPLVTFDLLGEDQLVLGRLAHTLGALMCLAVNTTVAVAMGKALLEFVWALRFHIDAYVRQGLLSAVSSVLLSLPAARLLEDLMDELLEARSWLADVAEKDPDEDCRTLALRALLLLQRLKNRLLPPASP
UniProt Q99426: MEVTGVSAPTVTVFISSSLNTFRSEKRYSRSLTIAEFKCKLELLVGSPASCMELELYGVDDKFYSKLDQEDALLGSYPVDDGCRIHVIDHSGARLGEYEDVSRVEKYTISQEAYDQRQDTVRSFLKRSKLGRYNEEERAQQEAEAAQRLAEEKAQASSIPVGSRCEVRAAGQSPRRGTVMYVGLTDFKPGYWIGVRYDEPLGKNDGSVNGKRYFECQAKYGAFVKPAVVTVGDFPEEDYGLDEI
UniProt Q9BTW9: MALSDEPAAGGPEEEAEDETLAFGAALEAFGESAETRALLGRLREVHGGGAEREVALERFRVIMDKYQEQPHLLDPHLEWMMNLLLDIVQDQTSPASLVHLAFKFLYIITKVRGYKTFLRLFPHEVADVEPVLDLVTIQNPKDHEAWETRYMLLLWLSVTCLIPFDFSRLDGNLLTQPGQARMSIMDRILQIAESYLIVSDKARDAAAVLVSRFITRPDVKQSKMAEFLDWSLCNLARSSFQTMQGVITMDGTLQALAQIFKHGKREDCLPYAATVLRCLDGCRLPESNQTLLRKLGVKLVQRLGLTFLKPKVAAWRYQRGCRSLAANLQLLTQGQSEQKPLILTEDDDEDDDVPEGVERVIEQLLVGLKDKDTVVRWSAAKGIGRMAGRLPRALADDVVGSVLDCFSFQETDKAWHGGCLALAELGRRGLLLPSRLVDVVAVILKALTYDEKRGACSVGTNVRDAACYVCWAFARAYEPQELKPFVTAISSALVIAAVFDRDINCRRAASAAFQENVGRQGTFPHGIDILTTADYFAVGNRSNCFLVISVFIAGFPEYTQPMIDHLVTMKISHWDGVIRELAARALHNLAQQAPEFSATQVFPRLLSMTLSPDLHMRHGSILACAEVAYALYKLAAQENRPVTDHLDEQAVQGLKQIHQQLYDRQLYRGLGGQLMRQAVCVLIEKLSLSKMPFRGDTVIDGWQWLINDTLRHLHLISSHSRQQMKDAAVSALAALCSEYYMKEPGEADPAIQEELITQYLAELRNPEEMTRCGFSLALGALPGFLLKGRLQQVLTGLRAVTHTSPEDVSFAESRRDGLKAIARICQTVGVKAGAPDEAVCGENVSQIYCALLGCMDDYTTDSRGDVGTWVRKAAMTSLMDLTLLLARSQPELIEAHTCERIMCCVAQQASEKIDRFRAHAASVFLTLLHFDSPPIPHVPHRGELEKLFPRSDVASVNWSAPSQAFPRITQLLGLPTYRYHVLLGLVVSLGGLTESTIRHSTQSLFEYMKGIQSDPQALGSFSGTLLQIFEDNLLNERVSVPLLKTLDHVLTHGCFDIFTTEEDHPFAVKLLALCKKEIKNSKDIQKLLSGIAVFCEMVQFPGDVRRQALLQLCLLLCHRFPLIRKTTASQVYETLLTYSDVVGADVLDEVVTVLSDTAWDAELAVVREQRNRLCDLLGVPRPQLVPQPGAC
UniProt Q9Y584: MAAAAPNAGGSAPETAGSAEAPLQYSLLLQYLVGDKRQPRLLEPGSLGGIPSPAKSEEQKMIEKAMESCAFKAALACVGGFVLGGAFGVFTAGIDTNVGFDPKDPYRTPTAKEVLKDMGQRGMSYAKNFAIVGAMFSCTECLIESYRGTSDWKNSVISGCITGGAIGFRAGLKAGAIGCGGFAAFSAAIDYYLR
UniProt Q9UHD2: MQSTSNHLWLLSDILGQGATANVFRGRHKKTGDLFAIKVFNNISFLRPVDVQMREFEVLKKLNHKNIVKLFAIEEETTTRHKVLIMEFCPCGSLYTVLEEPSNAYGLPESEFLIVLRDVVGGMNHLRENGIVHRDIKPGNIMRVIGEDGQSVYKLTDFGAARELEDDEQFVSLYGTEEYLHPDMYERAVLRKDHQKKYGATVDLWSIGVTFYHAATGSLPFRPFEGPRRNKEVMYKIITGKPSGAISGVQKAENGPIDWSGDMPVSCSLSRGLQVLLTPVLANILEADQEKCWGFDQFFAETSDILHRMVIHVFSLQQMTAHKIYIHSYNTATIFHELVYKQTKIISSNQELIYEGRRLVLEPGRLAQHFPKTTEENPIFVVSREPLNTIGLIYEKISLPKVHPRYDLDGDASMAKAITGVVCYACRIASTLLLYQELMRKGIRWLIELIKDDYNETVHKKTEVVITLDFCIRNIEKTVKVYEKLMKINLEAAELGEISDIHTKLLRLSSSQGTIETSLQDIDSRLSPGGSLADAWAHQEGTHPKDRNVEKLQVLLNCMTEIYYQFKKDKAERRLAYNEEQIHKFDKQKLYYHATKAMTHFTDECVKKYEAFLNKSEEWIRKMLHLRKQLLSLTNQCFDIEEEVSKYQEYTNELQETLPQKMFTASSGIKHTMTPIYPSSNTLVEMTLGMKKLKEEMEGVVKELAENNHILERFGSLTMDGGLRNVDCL
UniProt Q9NUY8: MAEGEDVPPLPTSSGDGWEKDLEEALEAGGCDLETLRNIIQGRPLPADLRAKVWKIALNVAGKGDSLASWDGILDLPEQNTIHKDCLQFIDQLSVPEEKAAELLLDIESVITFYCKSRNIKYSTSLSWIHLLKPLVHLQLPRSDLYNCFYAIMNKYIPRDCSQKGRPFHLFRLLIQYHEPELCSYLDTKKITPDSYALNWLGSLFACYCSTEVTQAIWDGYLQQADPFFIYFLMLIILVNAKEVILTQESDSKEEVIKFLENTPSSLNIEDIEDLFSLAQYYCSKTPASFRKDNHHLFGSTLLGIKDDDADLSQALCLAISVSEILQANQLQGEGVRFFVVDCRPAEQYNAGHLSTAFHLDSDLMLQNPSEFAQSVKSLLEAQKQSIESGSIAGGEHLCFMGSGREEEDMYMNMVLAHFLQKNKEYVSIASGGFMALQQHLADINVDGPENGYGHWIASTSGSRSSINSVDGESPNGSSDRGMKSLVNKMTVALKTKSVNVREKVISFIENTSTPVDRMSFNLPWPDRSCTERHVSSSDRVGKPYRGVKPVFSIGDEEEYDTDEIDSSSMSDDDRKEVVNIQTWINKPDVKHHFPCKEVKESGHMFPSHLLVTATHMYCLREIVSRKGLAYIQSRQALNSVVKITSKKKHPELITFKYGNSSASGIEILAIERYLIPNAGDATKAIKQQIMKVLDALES
UniProt Q15813: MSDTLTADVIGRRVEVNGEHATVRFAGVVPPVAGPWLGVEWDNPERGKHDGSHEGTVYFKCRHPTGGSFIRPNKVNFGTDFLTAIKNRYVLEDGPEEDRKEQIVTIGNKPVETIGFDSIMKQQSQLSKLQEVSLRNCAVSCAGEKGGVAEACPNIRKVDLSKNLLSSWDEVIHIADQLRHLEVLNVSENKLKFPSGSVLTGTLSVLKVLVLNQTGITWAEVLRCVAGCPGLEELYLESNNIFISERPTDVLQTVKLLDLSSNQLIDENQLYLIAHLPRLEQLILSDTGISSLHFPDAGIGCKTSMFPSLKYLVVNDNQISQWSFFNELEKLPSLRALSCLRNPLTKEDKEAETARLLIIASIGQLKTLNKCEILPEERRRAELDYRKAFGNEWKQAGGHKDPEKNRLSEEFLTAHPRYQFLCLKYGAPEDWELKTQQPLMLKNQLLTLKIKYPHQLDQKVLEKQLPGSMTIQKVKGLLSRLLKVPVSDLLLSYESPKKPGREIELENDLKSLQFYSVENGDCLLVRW
UniProt O60830: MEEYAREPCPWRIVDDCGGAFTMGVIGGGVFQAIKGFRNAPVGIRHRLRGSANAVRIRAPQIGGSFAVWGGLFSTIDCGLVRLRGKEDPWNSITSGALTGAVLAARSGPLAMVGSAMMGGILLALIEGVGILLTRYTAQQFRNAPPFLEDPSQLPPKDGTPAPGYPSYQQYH
UniProt Q9NXG2: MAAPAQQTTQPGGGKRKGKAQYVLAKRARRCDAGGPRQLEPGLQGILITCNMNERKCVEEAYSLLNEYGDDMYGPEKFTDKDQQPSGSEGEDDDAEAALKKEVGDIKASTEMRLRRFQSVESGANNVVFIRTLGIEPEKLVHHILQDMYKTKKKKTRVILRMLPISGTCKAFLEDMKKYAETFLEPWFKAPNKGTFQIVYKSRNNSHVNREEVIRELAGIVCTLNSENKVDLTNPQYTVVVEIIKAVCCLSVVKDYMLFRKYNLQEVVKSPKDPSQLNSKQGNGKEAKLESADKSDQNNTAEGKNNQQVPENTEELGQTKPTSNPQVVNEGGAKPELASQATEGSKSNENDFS

[2] = compound: CC1=C(C=C(C=C1)NC(=O)C2=CC(=CC=C2)N(C)C)NC(=O)C3=CC=C(C=C3)O
Summary of the method: as §1

[3] = compound: CC1=CC=C(C=C1)SC2=C3C=C(SC3=CN=C2)C(=O)N
Summary of the method: as §1

[4] = compound: CC1=NC(=CC=C1)C2=C(N=C(N2)C(C)(C)C)C3=CC4=NC=CN=C4C=C3
Summary of the method: as §1

Nexturastat A = compound: CCCCN(Cc1ccc(C(=O)NO)cc1)C(=O)Nc1ccccc1 [Nexturastat A]
Summary of the method: as §1

vemurafenib = compound: CCCS(=O)(=O)Nc1ccc(F)c(C(=O)c2c[nH]c3ncc(-c4ccc(Cl)cc4)cc23)c1F [vemurafenib]
Summary of the method: as §1

[5] = compound: CCCS(=O)(=O)Nc1ccc(F)c(C(=O)c2c[nH]c3ncc(Cl)cc23)c1F
Summary of the method: as §1

[6] = compound: CCCc1cc(C)[nH]c(=O)c1CNC(=O)c1cc(-c2ccnc(N3CCN(C)CC3)c2)cc2c1cnn2C(C)C
Summary of the method: as §1

givinostat = compound: CCN(CC)Cc1ccc2cc(COC(=O)Nc3ccc(C(=O)NO)cc3)ccc2c1 [givinostat]
Summary of the method: as §1

barasertib = compound: CCN(CCCOc1ccc2c(Nc3cc(CC(=O)Nc4cccc(F)c4)[nH]n3)ncnc2c1)CCOP(=O)(O)O [barasertib]
Summary of the method: as §1

Measured: log2 fold change

THBS1 (UniProt P07996)
inactive: [1] -0.08 | [2] 0.256 | [3] 0.048 | [4] 0.137 | Nexturastat A 0.012 | vemurafenib 0.109 | [5] -0.084 | [6] -0.191 | givinostat -0.09 | barasertib 0.015

TJAP1 (UniProt Q5JTD0)
inactive: [1] 0.02 | [2] 0.259 | [3] -0.038 | [4] -0.115 | Nexturastat A -0.041 | vemurafenib 0.051 | [5] -0.074 | [6] 0.01 | givinostat 0.002 | barasertib -0.094

THUMPD3 (UniProt Q9BV44)
inactive: [1] 0.051 | [2] 0.025 | [3] 0.028 | [4] 0.047 | Nexturastat A -0.053 | vemurafenib 0.022 | [5] 0.053 | [6] -0.021 | givinostat -0.006 | barasertib 0.011

TIMM8A (UniProt O60220)
inactive: [1] -0.031 | [2] -0.093 | [3] 0.018 | [4] 0.066 | Nexturastat A 0.025 | vemurafenib 0.059 | [5] -0.018 | [6] 0.071 | givinostat 0.009 | barasertib -0.027

TEX2 isoform 2 (UniProt Q8IWB9)
inactive: [1] -0.024 | [2] -0.03 | [3] -0.103 | [4] -0.246 | Nexturastat A -0.024 | vemurafenib 0.045 | [5] 0.025 | [6] -0.04 | givinostat 0.053 | barasertib -0.07

TIMM9 (UniProt Q9Y5J7)
inactive: [1] 0.062 | [2] -0.124 | [3] -0.009 | [4] 0.058 | Nexturastat A -0.051 | vemurafenib 0.108 | [5] -0.066 | [6] -0.011 | givinostat -0.084 | barasertib 0.051

TBC1D24 (UniProt Q9ULP9)
inactive: [1] -0.018 | [2] -0.012 | [3] 0.005 | [4] 0.006 | Nexturastat A -0.024 | vemurafenib 0.019 | [5] 0.046 | [6] -0.033 | givinostat 0.005 | barasertib -0.019

TET1 (UniProt Q8NFU7)
inactive: [1] -0.096 | [2] -0.164 | [3] 0.112 | [4] -0.156 | Nexturastat A 0.39 | vemurafenib 0.021 | [5] -0.019 | [6] -0.505 | givinostat 0.464 | barasertib -0.007

TFAM (UniProt Q00059)
inactive: [1] 0.039 | [2] -0.004 | [3] -0.036 | [4] -0.036 | Nexturastat A 0.079 | vemurafenib -0.05 | [5] -0.043 | [6] -0.033 | givinostat -0.055 | barasertib -0.023

THEM6 (UniProt Q8WUY1)
inactive: [1] 0.056 | [2] -0.02 | [3] -0.024 | [4] 0.028 | Nexturastat A -0.127 | vemurafenib 0.052 | [5] -0.004 | [6] -0.028 | givinostat -0.045 | barasertib -0.003

THOC3 (UniProt Q96J01)
inactive: [1] -0.078 | [2] -0.004 | [3] 0.008 | [4] 0.01 | Nexturastat A -0.013 | vemurafenib -0.001 | [5] 0.065 | [6] 0.011 | givinostat -0.04 | barasertib 0.016

TIMM50 isoform 2 (UniProt Q3ZCQ8)
inactive: [1] -0.017 | [2] -0.035 | [3] -0.028 | [4] 0.02 | Nexturastat A -0.022 | vemurafenib 0.02 | [5] 0.006 | [6] -0.007 | givinostat -0.032 | barasertib 0.061

TBC1D4 (UniProt O60343)
inactive: [1] -0.023 | [2] 0.013 | [3] 0.017 | [4] -0.007 | Nexturastat A 0.039 | vemurafenib -0.033 | [5] 0.034 | [6] -0.001 | givinostat -0.058 | barasertib 0.028

TIA1 (UniProt P31483)
inactive: [1] -0.064 | [2] 0.009 | [3] 0.008 | [4] 0.046 | Nexturastat A -0.003 | vemurafenib 0.002 | [5] 0.024 | [6] -0.09 | givinostat -0.081 | barasertib -0.001

THOC1 (UniProt Q96FV9)
inactive: [1] 0.108 | [2] -0.05 | [3] -0.026 | [4] -0.069 | Nexturastat A 0.173 | vemurafenib 0.01 | [5] 0.073 | [6] 0.012 | givinostat 0.091 | barasertib 0.008

TFB2M (UniProt Q9H5Q4)
inactive: [1] -0.017 | [2] 0 | [3] 0.008 | [4] 0.086 | Nexturastat A -0.077 | vemurafenib 0.035 | [5] 0.073 | [6] -0.058 | givinostat 0.017 | barasertib 0.048

TICAM2 isoform 2 (UniProt Q86XR7)
inactive: [1] 0.022 | [2] -0.028 | [3] 0.02 | [4] 0.028 | Nexturastat A -0.069 | vemurafenib 0.035 | [5] -0.01 | [6] 0.004 | givinostat 0.007 | barasertib 0.002

TCF3 (UniProt P15923)
inactive: [1] 0.03 | [2] 0.041 | [3] -0.049 | [4] -0.014 | Nexturastat A 0.024 | vemurafenib -0.013 | [5] 0.036 | [6] -0.051 | givinostat 0.002 | barasertib 0.019

TELO2 (UniProt Q9Y4R8)
inactive: [1] 0.04 | [2] -0.026 | [3] 0.028 | [4] -0.057 | Nexturastat A 0.143 | vemurafenib 0.12 | [5] 0.089 | [6] 0.014 | givinostat 0.084 | barasertib 0.05

TBCB (UniProt Q99426)
inactive: [1] 0.033 | [2] -0.017 | [3] 0.026 | [4] 0.023 | Nexturastat A 0.013 | vemurafenib 0.034 | [5] 0.056 | [6] -0.005 | givinostat 0.021 | barasertib 0.041

TBCD (UniProt Q9BTW9)
inactive: [1] 0.016 | [2] 0.003 | [3] 0.025 | [4] 0.052 | Nexturastat A -0.051 | vemurafenib 0.005 | [5] 0.02 | [6] -0.007 | givinostat 0.012 | barasertib 0.019

TIMM22 (UniProt Q9Y584)
inactive: [1] 0.01 | [2] -0.009 | [3] -0.081 | [4] -0.012 | Nexturastat A -0.07 | vemurafenib 0.165 | [5] 0.019 | [6] 0.012 | givinostat 0.019 | barasertib -0.015

TBK1 (UniProt Q9UHD2)
inactive: [1] -0.018 | [2] -0.03 | [3] 0.019 | [4] -0.007 | Nexturastat A 0.163 | vemurafenib -0.012 | [5] 0.089 | [6] 0.083 | givinostat 0.065 | barasertib 0.028

TKFC (UniProt Q3LXA3)
inactive: [1] 0.024 | [2] 0.019 | [3] 0.003 | [4] 0.038 | Nexturastat A -0.073 | vemurafenib -0.01 | [5] -0.009 | [6] -0.024 | givinostat -0.004 | barasertib 0.01

Reprinted at random: 2 entries already listed.
TIMM22 (UniProt Q9Y584)
inactive: [1] 0.01 | [2] -0.009 | [3] -0.081 | [4] -0.012 | Nexturastat A -0.07 | vemurafenib 0.165 | [5] 0.019 | [6] 0.012 | givinostat 0.019 | barasertib -0.015

TBCB (UniProt Q99426)
inactive: [1] 0.033 | [2] -0.017 | [3] 0.026 | [4] 0.023 | Nexturastat A 0.013 | vemurafenib 0.034 | [5] 0.056 | [6] -0.005 | givinostat 0.021 | barasertib 0.041

The results go on.

TERF2 (UniProt Q15554)
inactive: [1] 0.016 | [2] -0.098 | [3] -0.018 | [4] -0.074 | Nexturastat A 0.109 | vemurafenib -0.003 | [5] 0.024 | [6] 0.14 | givinostat 0.055 | barasertib -0.074

TBC1D23 (UniProt Q9NUY8)
inactive: [1] 0.029 | [2] -0.038 | [3] 0.005 | [4] 0.005 | Nexturastat A -0.071 | vemurafenib 0.035 | [5] 0.034 | [6] -0.074 | givinostat 0.006 | barasertib 0.041

TBCE (UniProt Q15813)
inactive: [1] -0.09 | [2] -0.007 | [3] 0.054 | [4] -0.091 | Nexturastat A 0.179 | vemurafenib 0.038 | [5] 0.063 | [6] 0.108 | givinostat 0.128 | barasertib 0.088

TIMM17B (UniProt O60830)
inactive: [1] -0.018 | [2] 0.053 | [3] -0.038 | [4] -0.021 | Nexturastat A 0.023 | vemurafenib -0.032 | [5] 0.003 | [6] -0.086 | givinostat 0.017 | barasertib 0.019

TFB1M (UniProt Q8WVM0)
inactive: [1] -0.034 | [2] -0.011 | [3] -0.065 | [4] -0.1 | Nexturastat A 0.196 | vemurafenib -0.03 | [5] -0.043 | [6] 0.116 | givinostat 0.055 | barasertib -0.034

THUMPD1 (UniProt Q9NXG2)
inactive: [1] 0.006 | [2] 0 | [3] 0.008 | [4] 0 | Nexturastat A -0.023 | vemurafenib 0.004 | [5] 0 | [6] -0.038 | givinostat -0.014 | barasertib 0.014

From the supplement of paper PMC10849652
